# No constants are given. Whether binding was seen depends on the method and setting. In cells and extracts the contact can be indirect. Some binding calls cover weakened binding; strength is not graded here. For part of these data: Where a sequence is shown, tags or fusion partners need not be part of it.
# Protein sequences, listed by entry. Tags and fused reporters are not part of them. Lines headed by an entry give the natural chain unless they say otherwise; changes in a name come on top. Residues count along the entry.
# UniProt Q8N7X0: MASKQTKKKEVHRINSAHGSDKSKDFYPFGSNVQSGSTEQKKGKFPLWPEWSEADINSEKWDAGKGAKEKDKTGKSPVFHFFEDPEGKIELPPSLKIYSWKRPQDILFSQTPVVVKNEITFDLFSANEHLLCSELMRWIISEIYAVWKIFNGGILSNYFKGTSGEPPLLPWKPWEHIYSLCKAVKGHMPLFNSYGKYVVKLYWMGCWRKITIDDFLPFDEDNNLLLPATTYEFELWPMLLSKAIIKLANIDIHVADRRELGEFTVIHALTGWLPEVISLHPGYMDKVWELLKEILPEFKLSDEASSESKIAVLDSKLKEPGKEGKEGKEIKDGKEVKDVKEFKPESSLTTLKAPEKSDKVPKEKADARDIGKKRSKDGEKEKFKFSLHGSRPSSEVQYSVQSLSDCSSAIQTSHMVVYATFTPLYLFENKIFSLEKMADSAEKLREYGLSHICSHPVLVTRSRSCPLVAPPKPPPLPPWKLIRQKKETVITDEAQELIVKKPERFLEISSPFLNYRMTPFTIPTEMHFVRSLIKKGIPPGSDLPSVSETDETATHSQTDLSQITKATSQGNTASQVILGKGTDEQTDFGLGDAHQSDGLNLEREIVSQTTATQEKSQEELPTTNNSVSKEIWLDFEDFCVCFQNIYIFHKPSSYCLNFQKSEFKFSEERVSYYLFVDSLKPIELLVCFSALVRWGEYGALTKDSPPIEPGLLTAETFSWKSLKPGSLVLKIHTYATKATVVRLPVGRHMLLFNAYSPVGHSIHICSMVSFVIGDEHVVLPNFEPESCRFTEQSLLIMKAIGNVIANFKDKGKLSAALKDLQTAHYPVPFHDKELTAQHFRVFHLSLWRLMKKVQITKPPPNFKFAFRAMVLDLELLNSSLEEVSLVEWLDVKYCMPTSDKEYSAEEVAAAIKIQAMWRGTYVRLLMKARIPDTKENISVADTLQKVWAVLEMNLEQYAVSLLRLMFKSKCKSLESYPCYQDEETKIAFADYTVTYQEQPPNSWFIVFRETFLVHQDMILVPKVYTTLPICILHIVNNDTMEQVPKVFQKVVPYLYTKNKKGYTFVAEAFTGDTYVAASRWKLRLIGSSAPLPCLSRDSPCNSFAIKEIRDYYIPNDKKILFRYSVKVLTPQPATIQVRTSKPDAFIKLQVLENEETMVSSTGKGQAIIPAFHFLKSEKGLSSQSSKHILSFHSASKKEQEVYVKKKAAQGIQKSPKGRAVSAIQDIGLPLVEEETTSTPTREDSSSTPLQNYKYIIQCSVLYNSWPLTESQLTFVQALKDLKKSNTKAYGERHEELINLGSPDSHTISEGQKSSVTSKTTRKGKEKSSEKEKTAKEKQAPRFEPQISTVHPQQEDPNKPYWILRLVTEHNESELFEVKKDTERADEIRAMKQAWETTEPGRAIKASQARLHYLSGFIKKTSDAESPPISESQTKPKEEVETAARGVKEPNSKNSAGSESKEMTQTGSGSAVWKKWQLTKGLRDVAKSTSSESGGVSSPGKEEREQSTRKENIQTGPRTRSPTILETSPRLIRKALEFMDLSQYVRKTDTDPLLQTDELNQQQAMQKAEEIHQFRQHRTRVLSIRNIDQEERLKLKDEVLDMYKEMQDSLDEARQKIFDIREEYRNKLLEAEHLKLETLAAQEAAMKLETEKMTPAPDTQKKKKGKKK
# N-terminal mutant ADGB: residues 58-968 of Q8N7X0
# C-terminal mutant ADGB: residues 969-1667 of Q8N7X0
# UniProt G3UZ78: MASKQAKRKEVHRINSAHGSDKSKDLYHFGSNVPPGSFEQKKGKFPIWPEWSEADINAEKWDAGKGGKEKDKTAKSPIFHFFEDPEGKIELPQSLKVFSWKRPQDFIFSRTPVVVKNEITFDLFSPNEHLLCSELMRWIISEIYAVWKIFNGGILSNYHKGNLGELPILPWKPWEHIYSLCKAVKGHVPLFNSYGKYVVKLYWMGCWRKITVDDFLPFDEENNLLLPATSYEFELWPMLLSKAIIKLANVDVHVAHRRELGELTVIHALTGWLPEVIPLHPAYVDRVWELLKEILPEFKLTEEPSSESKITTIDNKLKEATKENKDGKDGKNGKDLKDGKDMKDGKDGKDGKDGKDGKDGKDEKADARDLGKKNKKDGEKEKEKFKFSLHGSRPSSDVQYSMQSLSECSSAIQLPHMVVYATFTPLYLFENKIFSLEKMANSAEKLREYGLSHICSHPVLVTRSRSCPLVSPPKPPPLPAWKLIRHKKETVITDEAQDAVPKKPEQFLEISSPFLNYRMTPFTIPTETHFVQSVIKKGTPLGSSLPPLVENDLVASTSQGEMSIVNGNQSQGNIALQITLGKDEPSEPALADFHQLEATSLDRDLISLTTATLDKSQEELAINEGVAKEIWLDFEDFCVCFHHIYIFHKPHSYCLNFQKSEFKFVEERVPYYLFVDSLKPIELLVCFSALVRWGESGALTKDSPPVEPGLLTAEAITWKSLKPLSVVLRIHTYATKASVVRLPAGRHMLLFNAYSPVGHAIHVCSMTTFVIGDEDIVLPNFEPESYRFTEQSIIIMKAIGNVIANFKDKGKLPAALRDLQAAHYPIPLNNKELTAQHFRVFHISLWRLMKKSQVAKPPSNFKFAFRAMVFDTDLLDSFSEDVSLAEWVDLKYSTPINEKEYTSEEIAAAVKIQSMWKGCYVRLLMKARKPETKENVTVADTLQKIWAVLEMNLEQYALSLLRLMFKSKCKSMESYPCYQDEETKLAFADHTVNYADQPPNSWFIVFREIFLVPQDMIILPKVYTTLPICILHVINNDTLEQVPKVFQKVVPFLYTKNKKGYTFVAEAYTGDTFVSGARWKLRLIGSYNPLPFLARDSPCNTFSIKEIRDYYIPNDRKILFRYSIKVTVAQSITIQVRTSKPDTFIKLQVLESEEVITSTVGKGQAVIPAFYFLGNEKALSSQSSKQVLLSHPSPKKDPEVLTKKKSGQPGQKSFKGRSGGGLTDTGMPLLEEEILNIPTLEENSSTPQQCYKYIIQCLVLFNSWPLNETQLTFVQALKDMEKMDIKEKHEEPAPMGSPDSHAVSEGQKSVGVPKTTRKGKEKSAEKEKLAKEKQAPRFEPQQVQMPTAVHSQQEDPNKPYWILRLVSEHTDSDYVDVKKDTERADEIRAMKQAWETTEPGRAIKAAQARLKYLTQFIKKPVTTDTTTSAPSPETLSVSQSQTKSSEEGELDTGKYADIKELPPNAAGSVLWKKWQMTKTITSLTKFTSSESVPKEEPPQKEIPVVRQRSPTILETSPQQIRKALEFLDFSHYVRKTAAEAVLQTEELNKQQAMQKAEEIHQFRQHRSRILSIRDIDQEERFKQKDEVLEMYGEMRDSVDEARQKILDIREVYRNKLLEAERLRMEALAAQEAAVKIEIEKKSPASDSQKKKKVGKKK
# T1: C-terminally V5-tagged SEPT10 (UniProt Q9P0V9)
# T1 sequence: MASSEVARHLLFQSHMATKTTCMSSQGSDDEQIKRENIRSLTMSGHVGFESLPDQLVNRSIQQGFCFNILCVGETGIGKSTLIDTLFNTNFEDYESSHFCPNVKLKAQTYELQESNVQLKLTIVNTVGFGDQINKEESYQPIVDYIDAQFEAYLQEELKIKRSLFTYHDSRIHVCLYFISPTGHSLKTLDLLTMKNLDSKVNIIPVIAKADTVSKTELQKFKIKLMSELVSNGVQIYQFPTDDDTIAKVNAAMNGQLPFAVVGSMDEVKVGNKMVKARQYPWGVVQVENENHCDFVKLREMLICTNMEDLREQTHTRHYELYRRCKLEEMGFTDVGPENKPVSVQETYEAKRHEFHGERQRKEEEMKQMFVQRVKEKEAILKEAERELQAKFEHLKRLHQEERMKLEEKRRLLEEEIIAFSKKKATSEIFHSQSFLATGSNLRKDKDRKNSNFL
# B1: C-terminally V5-tagged SEPT10 (protein, UniProt Q9P0V9 1-454)
# chain: MASSEVARHLLFQSHMATKTTCMSSQGSDDEQIKRENIRSLTMSGHVGFESLPDQLVNRSIQQGFCFNILCVGETGIGKSTLIDTLFNTNFEDYESSHFCPNVKLKAQTYELQESNVQLKLTIVNTVGFGDQINKEESYQPIVDYIDAQFEAYLQEELKIKRSLFTYHDSRIHVCLYFISPTGHSLKTLDLLTMKNLDSKVNIIPVIAKADTVSKTELQKFKIKLMSELVSNGVQIYQFPTDDDTIAKVNAAMNGQLPFAVVGSMDEVKVGNKMVKARQYPWGVVQVENENHCDFVKLREMLICTNMEDLREQTHTRHYELYRRCKLEEMGFTDVGPENKPVSVQETYEAKRHEFHGERQRKEEEMKQMFVQRVKEKEAILKEAERELQAKFEHLKRLHQEERMKLEEKRRLLEEEIIAFSKKKATSEIFHSQSFLATGSNLRKDKDRKNSNFL
# B2: septin 10 (Sept10) (protein, UniProt Q8C650 1-452)
# chain: MASCDEIKEHPRSLSMCGHVGFESLPDQLVDRSIEQGFCFNILCVGETGIGKSTLINTLFNTNFEELESSHFCPCVRLRAQTYELQESNVRLKLTIVNTVGFGDQINKEDSYQPIVDYIDDQFEAYLQEEVKIKRALFNYHDSRIHVCLYFIAPTGHSLRTLDLLTMKSLDNKVNIIPLIAKADTISKSELQKFKMKLMNELVINGVQIYQFPTDDDTTSKINGAMNGHLPFAVVGSMDEIKVGNKMVKGRQYPWGIVQVENENHCDFVKLREMLICTNMEDLREQTHMRHYELYRRCKLQEMGFVDMGPENKPLSLQETYEAKRHEFYGERQRKEEQMKQMFVQRVKEKEAILKEAERELQAKFEHLKRIHQEERMKLEEKRRMLEEESVAFAKKKATCELFPNQSFLASGSSIRKDKDRKKADGASAFCDCLTAQESVRLCISSPRKDMD
# B3: SEPT10 (protein, UniProt Q9P0V9 1-454)
# chain: MASSEVARHLLFQSHMATKTTCMSSQGSDDEQIKRENIRSLTMSGHVGFESLPDQLVNRSIQQGFCFNILCVGETGIGKSTLIDTLFNTNFEDYESSHFCPNVKLKAQTYELQESNVQLKLTIVNTVGFGDQINKEESYQPIVDYIDAQFEAYLQEELKIKRSLFTYHDSRIHVCLYFISPTGHSLKTLDLLTMKNLDSKVNIIPVIAKADTVSKTELQKFKIKLMSELVSNGVQIYQFPTDDDTIAKVNAAMNGQLPFAVVGSMDEVKVGNKMVKARQYPWGVVQVENENHCDFVKLREMLICTNMEDLREQTHTRHYELYRRCKLEEMGFTDVGPENKPVSVQETYEAKRHEFHGERQRKEEEMKQMFVQRVKEKEAILKEAERELQAKFEHLKRLHQEERMKLEEKRRLLEEEIIAFSKKKATSEIFHSQSFLATGSNLRKDKDRKNSNFL
# B4: FLAG-SEPT7 (protein, UniProt Q16181 1-437)
# chain: MSVSARSAAAEERSVNSSTMVAQQKNLEGYVGFANLPNQVYRKSVKRGFEFTLMVVGESGLGKSTLINSLFLTDLYSPEYPGPSHRIKKTVQVEQSKVLIKEGGVQLLLTIVDTPGFGDAVDNSNCWQPVIDYIDSKFEDYLNAESRVNRRQMPDNRVQCCLYFIAPSGHGLKPLDIEFMKRLHEKVNIIPLIAKADTLTPEECQQFKKQIMKEIQEHKIKIYEFPETDDEEENKLVKKIKDRLPLAVVGSNTIIEVNGKRVRGRQYPWGVAEVENGEHCDFTILRNMLIRTHMQDLKDVTNNVHYENYRSRKLAAVTYNGVDNNKNKGQLTKSPLAQMEEERREHVAKMKKMEMEMEQVFEMKVKEKVQKLKDSEAELQRRHEQMKKNLEAQHKELEEKRRQFEDEKANWEAQQRILEQQNSSRTLEKNKKKGKIF
# How the values were obtained:
# full-length ADGB = full-length ADGB (UniProt Q8N7X0); experiment: co-IP; lysates (1% triton buffer) of HEK293 cells (co-)transfected with the two constructs, IP by antibody to the protein or its tag (FLAG, V5, GFP), immunoblot; for GFP-Globin and V5-CaM also after heme depletion (heme-depleted FBS, 3 mM succinylacetone, 24 hr)
# [1] = biological target: androglobin (Adgb) (mouse (endogenous in testis)) (UniProt G3UZ78); experiment: co-IP; reciprocal co-IP from testis lysates of wild-type and Adgb knockout mice (2 mg protein), protein G-sepharose, immunoblot
# N-terminal mutant ADGB = N-terminal mutant ADGB (UniProt Q8N7X0); experiment: co-IP; lysates (1% triton buffer) of HEK293 cells (co-)transfected with the two constructs, IP by antibody to the protein or its tag (FLAG, V5, GFP), immunoblot; for GFP-Globin and V5-CaM also after heme depletion (heme-depleted FBS, 3 mM succinylacetone, 24 hr)
# C-terminal mutant ADGB = C-terminal mutant ADGB (UniProt Q8N7X0); experiment: as above
# [2] = biological target: T1, C-terminally V5-tagged SEPT10; experiment: as above
binder,measurement,setting,value
B1,binding,full-length ADGB,binds
B2,binding,[1],binds
B3,binding,N-terminal mutant ADGB,binds
same,binding,C-terminal mutant ADGB,binds
same,binding,full-length ADGB,binds
B4,binding,[2],binds
